Test system: β-hematin formation
Assay: Inhibition of β-hematin formation (lipid-catalysed heme crystallization)
Type: biochemical
Settings: fold higher than observed for CQ

SMILES: C#CCNc1ccnc2cc(Cl)ccc12 [PCQ]
- β-hematin inhibitory concentration relative to CQ: 4 fold
